Data source: PubChem BioAssay AID1671195 (Yale University, 2021)
Screen: 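Genes whose knockdown alters LDL uptake in liver cancer cells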 (primary screen). Cell system: human Huh7 hepatoma cells. Reagents: siRNA pool against human genes, 18 nM. Timing: about 2 to 2.5 days of knockdown, then 8 h LDL uptake. Conditions: DiI-labelled LDL at 30 µg/ml for 8 h, in lipoprotein-deficient serum medium. Measurement: 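Per-cell DiI-LDL intensity by automated imaging; well means scaled to the plate median and given as a robust z-score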. Scale: robust z-score: higher = more LDL uptake after knockdown. Active means: 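Active when two or more replicates show a robust z-score above 2 or below -2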.
The whole screen tested about 22,000 reagents; below is a part drawn at random. Of all reagents, about 1,510 (6.9%) are marked active. 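Active includes knockdowns raising or lowering LDL uptake; positive z-scores mean more uptake, negative mean less.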 Unmarked entries are inactive.

With COQ3, how do the results read?
robust z-score, replicate 1: -3.01; robust z-score, replicate 2: 0.557; robust z-score, replicate 3: 0.048

What did the screen give for HFE?
robust z-score, replicate 1: 2.19; robust z-score, replicate 2: -0.0762; robust z-score, replicate 3: -2.73

For LOC389184 (retired record), what does the deposit list?
robust z-score, replicate 1: 2.13; robust z-score, replicate 2: 1.35; robust z-score, replicate 3: 1.19

What is on record for ZFP69?
robust z-score, replicate 1: 0.305; robust z-score, replicate 2: 0.28; robust z-score, replicate 3: 0.637

Look-ups from above.
Entry of HFE under “robust z-score, replicate 2”: -0.0762
ZFP69, robust z-score, replicate 3: 0.637

Continued.
With PCID2, how do the results read?
robust z-score, replicate 1: -0.135; robust z-score, replicate 2: -1.72; robust z-score, replicate 3: -0.447

With CACNA2D2, what does the deposit list?
robust z-score, replicate 1: 4.05 (active); robust z-score, replicate 2: 4.02; robust z-score, replicate 3: 3.07

With HECA, how do the results read?
robust z-score, replicate 1: 0.595; robust z-score, replicate 2: -0.0614; robust z-score, replicate 3: -1.63

With LOC401312, what was measured?
robust z-score, replicate 1: 0.0245; robust z-score, replicate 2: -0.412; robust z-score, replicate 3: 0.361

For LRRC40, how do the results read?
robust z-score, replicate 1: 0.598; robust z-score, replicate 2: 0.0144; robust z-score, replicate 3: -1.24

What is on record for LOC400411 (retired record)?
robust z-score, replicate 1: 0.191; robust z-score, replicate 2: -0.0925; robust z-score, replicate 3: -0.118

What is on record for IGFL3?
robust z-score, replicate 1: -1.02; robust z-score, replicate 2: -0.957; robust z-score, replicate 3: -0.965

With CPNE4, what does the deposit list?
robust z-score, replicate 1: -0.228; robust z-score, replicate 2: -0.344; robust z-score, replicate 3: -0.466
